Reference: PubChem BioAssay AID1259425 (University of Nebraska Medical Center, 2018)

Aim: 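Find knockdowns that reproduce the gene expression pattern seen when KSR1 is lost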 (primary screen)
Cells: HCT116 human colon cancer cells
Reagents: siRNA pool against human genes, 50 nM siRNA
Measurement: 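mRNA of six signature genes measured together by branched-DNA assay after 50 nM siRNA pool, blank removed, divided by geometric mean of two housekeeping genes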
Direction: BNIP3L mRNA: higher = more BNIP3L transcript after knockdown; NDRG1 mRNA: higher = more NDRG1 transcript after knockdown
The deposit covers about 14,000 reagents; this is a part drawn at random. Not all columns of the deposit are shown. The record does not give: the time to read-out.

| gene symbol | PubChem SID | BNIP3L mRNA, set 1 | NDRG1 mRNA, set 1 |
| --- | --- | --- | --- |
| ETNPPL | SID364003568 | 0.143 | 0.206 |
| S100A3 | SID363994111 | 0.0594 | 0.0713 |
| SFTPA1 | SID363996317 | 0.112 | 0.137 |
| LRRC8A | SID364001426 | 0.107 | 0.325 |
| PHF14 | SID364005577 | 0.125 | 0.731 |
| SNX27 | SID364003493 | 0.0919 | 0.209 |
| CSPG4P2Y | SID364004068 | 0.228 | 0.403 |
| GRB14 | SID363995469 | 0.0841 | 0.188 |
| C1S | SID363992955 | 0.0758 | 0.112 |

An excerpt from above, showing only “BNIP3L mRNA, set 1”:
SFTPA1 [SID363996317]: 0.112
LRRC8A [SID364001426]: 0.107

Further reagents follow.
| gene symbol | PubChem SID | BNIP3L mRNA, set 1 | NDRG1 mRNA, set 1 |
| --- | --- | --- | --- |
| RAB11FIP5 | SID363999517 | 0.111 | 0.914 |
| MLF1 | SID364002432 | 0.148 | 0.0433 |
| HS3ST3B1 | SID363996892 | 0.0798 | 0.119 |
| AIDA | SID364002575 | 0.0937 | 0.164 |
| CYB561D2 | SID363997754 | 0.16 | 0.301 |
| UTP18 | SID363999786 | 0.126 | 0.413 |
| ESRRB | SID363995434 | 0.0877 | 0.163 |
| LMLN | SID364004287 | 0.0657 | 0.233 |
| BUB1B | SID363992497 | 0.112 | 0.233 |
| PIK3C3 | SID363993815 | 0.0839 | 0.129 |
| CTF1 | SID363992610 | 0.0794 | 0.0947 |
